PubChem BioAssay AID1259308 – NCATS, 2017
Test: 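Candidate targets for better recombinant protein yield in mammalian cells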 (primary screen). Cell system: human HEK293 embryonic kidney cells stably expressing firefly luciferase (HEK-CMV-Luc2-Hygro). Reagent: single siRNA against human genes, 0.8 pmol siRNA per well. Timing: 72 h. Measured: 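Luciferase light (ONE-Glo) measured on one replicate plate set and viability (CellTiter-Glo) on the other, scaled to a negative control siRNA, with robust z-scores and luciferase per cell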. Reading the numbers: total luciferase, z-score: higher = more reporter protein produced. Call rule: 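Active when the median/MAD z-score for overall luciferase is greater than 3; a gene was taken forward for validation with new siRNAs if at least two of its three siRNAs passed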. Meaning of the calls: active = raised luciferase; inactive = no rise.
Shown is an unselected part of about 59,000 deposited reagents. About 1,510 of all reagents (2.6%) were called active. 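Calls use total luciferase alone and ignore viability, so some active siRNAs may act by altering cell number.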 The numbers tell different reagents against one gene apart. Not all columns of the deposit are shown. Reagent sequences are not shown.

total luciferase, z-score, by gene and reagent
NUP155 (GeneID 9631): #1 -0.346 inactive; #2 -1.17 inactive; #3 -0.73 inactive
PLAC9P1 (GeneID 389033): #1 -0.651 inactive; #2 -1.2 inactive; #3 -0.584 inactive
MED12L (GeneID 116931): #1 1.23 inactive; #2 -0.077 inactive; #3 -0.496 inactive
SNX3 (GeneID 8724): #1 -0.0153 inactive; #2 0.412 inactive; #3 0.566 inactive
SLF1 (GeneID 84250): #1 -0.439 inactive; #2 -0.16 inactive; #3 -0.662 inactive
HRH3 (GeneID 11255): #1 1.14 inactive; #2 -1.21 inactive; #3 -1.18 inactive
MC2R (GeneID 4158): #1 0.437 inactive; #2 -1.2 inactive; #3 -1.81 inactive

Quoted from above, 6 entries:
total luciferase, z-score, by gene and reagent
SNX3 (GeneID 8724): #2 0.412 inactive; #3 0.566 inactive
SLF1 (GeneID 84250): #1 -0.439 inactive; #2 -0.16 inactive; #3 -0.662 inactive
HRH3 (GeneID 11255): #1 1.14 inactive

The results go on:
total luciferase, z-score, by gene and reagent
ANKRD27 (GeneID 84079): #1 0.0238 inactive; #2 -0.192 inactive; #3 1.12 inactive
RAP2B (GeneID 5912): #1 0.0965 inactive; #2 -0.49 inactive; #3 -0.272 inactive
BRD10 (GeneID 158358): #1 -1.35 inactive; #2 -0.9 inactive; #3 0.033 inactive
CAPN2 (GeneID 824): #1 -0.341 inactive; #2 0.0891 inactive; #3 -0.326 inactive
SLC7A13 (GeneID 157724): #1 -1.25 inactive; #2 -0.0864 inactive; #3 -0.548 inactive
ZMYND15 (GeneID 84225): #1 -0.994 inactive; #2 0.99 inactive; #3 0.338 inactive
